In data set [1] the target is T1, SERF2 (human) (UniProt P84101).
T1 sequence (looked up): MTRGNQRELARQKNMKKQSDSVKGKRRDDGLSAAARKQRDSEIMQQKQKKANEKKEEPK
As to the kind of experiment: EMSA. Particulars: recombinant protein, residues 1-59, protein details: His-SUMO removed, AF488-labeled in some assays, label: 6-FAM (FP). For orientation: Mobility shift assays separate free from complexed probe on a gel.

Data set [2] concerns the target T1, SERF2 (human). Put plainly: fluorescence polarization. As to conditions: FP/anisotropy: 20 mM NaPi pH 7.4, 100 mM KCl, 25 C (20-200 nM probe), recombinant protein, residues 1-59, protein details: His-SUMO removed, AF488-labeled in some assays. (Polarisation of emitted light reports the rotation of a fluorescent probe.)
Data set [3] deals with T2, SERF2 K16-K17 double mutant K16A,K17A (human) (UniProt P84101).
T2 sequence (looked up): T1 sequence (looked up) with K16A, K17A
As to the kind of experiment: EMSA. Particulars: 5 uM each, significantly impaired; recombinant protein; residues 1-59; protein details: His-SUMO removed; label: 6-FAM (FP), unlabeled (NMR, EMSA).

In data set [4] the target is SERF2 both-interface lysine mutant (human) (UniProt P84101). Put plainly: EMSA. As to conditions: 5 uM each, further reduced; recombinant protein; residues 1-59; protein details: His-SUMO removed; label: 6-FAM (FP), unlabeled (NMR, EMSA).
The mark [5] stands for this setting: 100 mM KCl, folded or branched DNA.

Changes are numbered by the printed parent chain. For some of these results: The comparison behind a weaker result is the experiment's own reference, which may not be listed here. For some of these results: Tags and fusion partners may be left off the protein sequences shown. For some of these results: Construct, isoform or probe ends are uncertain for at least one entry. For some of these results: At least one verdict rests on a figure or table, not on a statement of the authors.

On to “GAAGGGGAGGGGGCUGGGGGGGGGCAGGG [Mark2 rG4]”, for which the binding result in the data set with SERF2 (human) [1] (10 uM RNA, 5-40 uM SERF2) is “binds”.
Take “GGGGCCGGGGCCGGGGCCGGGGCC [(GGGGCC)4 DNA]”: the binding result with SERF2 (human) [2] (setting [5]) is recorded as “binds more weakly”.
As for “TTAGGGTTAGGGTTAGGGTTAGGG [(TTAGGG)4 DNA]”, in the data set with SERF2 (human) [2] (setting [5]), the binding result was “binds more weakly”.
On to UAGGGUUAGGGUUAGGGUUAGGG [TERRA23], for which the binding result is “binds” with SERF2 (human) [1] (5 uM each, unlabeled (NMR, EMSA)); “binds more weakly” in data set [3]; “binds more weakly” in data set [4].
As to UUAGGGUUAGGG [TERRA12], in the data set with SERF2 (human) [2] (AF488-SERF2, weaker than TERRA23/60), the binding result was “binds more weakly”.
